# Library screen at single concentrations

Measurements from “University of Dundee, Small-Polar-MMV Screening Library” (2021), ChEMBL document CHEMBL3988442.

A: 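Whole-parasite assay of Trypanosoma brucei over 72 hours; the read-out is not stated. Concentration: 30 µM. Direction is inferred from retests: higher values go with stronger inhibition. Values scatter widely below zero; nearly all retest evidence comes from the higher of the two concentrations used. Of about 64,000 compounds tested this way, about 940 (1.5%) reached 50% or more in at least one test.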
B: 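Cell assay of Leishmania donovani living inside macrophages; the read-out is not stated. Tested at 30 µM. The record gives no direction; compounds that gave an IC50 in retests scored well above the rest, so higher reads as stronger inhibition. Of about 69,000 compounds tested this way, about 1,000 (1.5%) reached 50% or more in at least one test.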

The filed quantity is “Percent Effect” (%).
How 0% and 100% were set is not recorded. Most values in the screen are low, and negative values occur.
This is an unselected part of the compounds tested.
Two or more numbers in one place are separate tests of the same structure; such repeats can differ widely.
A dash means the value is not listed here; it may have been measured.

| # | SMILES | A | B |
|---|---|---|---|
| 1 | `CCNc1ncc(C(=O)N2Cc3nc(C)[nH]c(=O)c3C2)cn1` | -21.09% | -2.404% |
| 2 | `CSC1(CNC(=O)NCc2sccc2C)CCOCC1` | -71.73% | 28.35% |
| 3 | `CCN(CC)C(=O)Cn1ccc2cc(NC(=O)C3CC3)ccc21` | 3.599% | 9.174% |
| 4 | `Cc1n[nH]c(C)c1CCC(=O)N1CCC(O)(CN2CCN(C)CC2)C1` (centres undefined) | -15.98% | 2.204% |
| 5 | `CC(CS(C)(=O)=O)NCc1cc(Cl)ccc1F` (centres undefined) | -17.24% | -30.78% |
| 6 | `CC(C)CN(CC(O)c1ccc(F)cc1)C(=O)c1csnn1` (centres undefined) | -1.378% | -23.47% |
| 7 | `CCS(=O)(=O)Nc1ccc2oc(C)c(C(C)=O)c2c1` | -8.117% | -2.932% |
| 8 | `Cc1nc(NC(=O)C2CCCN(C(=O)C3CC3)C2)sc1C` (centres undefined) | -11.09% | 13.54% |
| 9 | `Cl.OC[C@H]1CC[C@]2(CC1)CN(Cc1ccccc1F)Cc1ccccc1O2` | 37.78% | 45.83% |
| 10 | `O=C(O)C(F)(F)F.O=C(O)C(F)(F)F.O=C(O)C(F)(F)F.[H][C@]12C[C@@H](CN3CCCC3)N(C(C)C)[C@@]1([H])CCN(Cc1ccoc1)C2` | -19.73% | 23.26% |
| 11 | `CC(C)c1nnc(NC(=O)CSCc2cc(=O)n3ccccc3n2)s1` | 8.212% | -1.077% |
| 12 | `CC(C)N(C)Cc1cncc2c1CCN(Cc1cccs1)C2.Cl.Cl.Cl` | -12.01% | 7.349% |
| 13 | `COCCn1ccc2c(NC(=O)c3n[nH]c4c3CCCC4)cccc21` | 7.891% | -4.808% |
| 14 | `Cc1nccc(-c2ccccc2)c1C(=O)N1CCC2(CCCO2)CC1` | -51.17% | -0.7591% |
| 15 | `N#Cc1ccc(CN2C[C@@H](F)[C@@H](OCc3nc4cnccc4[nH]3)C2)cc1` | -9.652% | 6.373% |
| 16 | `Cc1nc(C)n(CC2CCCN(c3ccc(C#N)cn3)C2)n1` (centres undefined) | -16.76% | 32.55% |
| 17 | `Cn1cc(C(=O)CC2CCCN2C(=O)c2ccc(Cl)cn2)cn1` (centres undefined) | -49.82% | 25.58% |
| 18 | `CNc1cc(C2CCCN2Cc2ccc(OCC(=O)O)cc2)ccn1` (centres undefined) | -0.0474% | 0.2499% |
| 19 | `CCOCCCC(=O)Nc1c(-c2ccc(F)cc2)ncn1C` | -29.75% | -9.46% |
| 20 | `Cn1c(N2CCOCC2)nc2cc(C(=O)N3CC(O)CO3)ccc21` (centres undefined) | -63.11% | 19.63% |
| 21 | `COC(=O)c1cccc(CN(C)C(C)c2ccccn2)c1` (centres undefined) | -43.29% | 39.27% |
| 22 | `COC(=O)CC1CCN(C(=O)c2ccc(-n3nnnc3C)cc2)CC1` | -4.905% | 32.27% |
| 23 | `COc1ccnc(N2CCN(C(=O)c3csnn3)CC2)n1` | 14.98% | 19.76% |
| 24 | `C=C(C)COc1ccccc1CN1CCC(C(=O)NCC)C1` (centres undefined) | -17.21% | -8.345% |
| 25 | `Cc1ccc(CN2CCc3c(nnn3C)C2COCc2ccccc2)s1.O=C(O)C(F)(F)F` (centres undefined) | 37.64% | 6.718% |
| 26 | `CCCOCCN1CCC2(CC1)CC(=O)N(Cc1cc(F)cc(F)c1)C2` | 3.651% | 9.531% |
| 27 | `COc1ccc2cc(C(=O)N3CCCC3Cn3cc(C)cn3)[nH]c2c1` (centres undefined) | 14.11% | -46.35% |
| 28 | `COc1cccc(COCC(=O)NC(C(N)=O)c2ccccc2)c1` (centres undefined) | -40.62% | -8.099% |
| 29 | `CCCOc1ccc(CCC(=O)Nc2nonc2C)cc1` | 7.34% | -43.54% |
| 30 | `Cc1ccsc1CN(Cc1ccccn1)CC(C)C` | -13.67% | 17.19% |
| 31 | `COc1cccc(CNCc2cccnc2-n2cccn2)c1OC` | -14.9% | 0.7186% |
| 32 | `Cc1nn(C)c(C)c1NC(=O)CN1CCCC1c1c(C)nn(C)c1C` (centres undefined) | -17.58% | 14.95% |
| 33 | `Cc1cc(NC(=O)CN2CCCC2c2c(C)nn(C)c2Cl)on1` (centres undefined) | -4.054% | 24.03% |
| 34 | `CC(C)(C)OC(=O)NCC1CCCCN1Cc1ccccn1` (centres undefined) | -2.112% | 4.788% |
| 35 | `CC(C)(C)NC(=O)c1ccn(COc2ccccc2Cl)n1` | -65.1% | 62.54% |
| 36 | `CS(=O)(=O)c1ccc2c(c1)N(C(=O)Cc1cccc(F)c1)CCC2` | -25.64% | 10.64% |
| 37 | `CN1CC(=O)N(c2cnn(C)c2)CC12CCN(Cc1nccn1C)C2.O=C(O)C(F)(F)F.O=C(O)C(F)(F)F` (centres undefined) | -33.06% | 3.871% |
| 38 | `Cc1cc(CN2CCN(C(=O)C3(C#N)CCCC3)CC2)on1` | -1.583% | -4.337% |
| 39 | `COCCc1noc(-c2cn(CCc3ccccc3)nn2)n1` | - | 9.845% |
| 40 | `CCc1n[nH]c(C2CN(Cc3nnc(C4CC4)n3C)CCO2)n1` (centres undefined) | -46.13% | -24.91% |
| 41 | `O=S(=O)(NC1CCCCC12OCCO2)c1ccc2c(c1)OCCO2` (centres undefined) | -11.66% | 16.39% |
| 42 | `CCc1nc(N2CCCC(CCCOC)C2)c2cnn(C)c2n1` (centres undefined) | -5.998% | -29.83% |
| 43 | `CC(O)CN(CC(=O)NC(=O)NC1CC1)c1ccccc1` (centres undefined) | 4.28% | 17.15% |
| 44 | `Cc1nnc(NC(=O)NC(C)Cn2cccn2)s1` (centres undefined) | - | 14.15% |
| 45 | `O=C(CCCOc1ccc(F)cc1F)N1CCCC(n2cccn2)C1` (centres undefined) | 0.7909% | 24.9% |
| 46 | `CCc1nccn1C1CCCN(C(=O)c2cn3cccnc3n2)C1` (centres undefined) | -14.73% | 27.67% |
| 47 | `CCN(CC)C1COc2c(cc(Br)c(C)c2C)C1=O` (centres undefined) | -8.815% | 2.655% |
| 48 | `O=C(O)C(F)(F)F.O=C(O)C(F)(F)F.O=C(O)C(F)(F)F.[H][C@]12C[C@H](C(=O)N3CCN(C)CC3)N(C)[C@@]1([H])CN(c1ncc(C)cn1)C2` | -33.02% | 3.387% |
| 49 | `C[C@@H]1CN(c2cc(N3CCC(O)CC3)ncn2)C[C@@]1(O)C1CC1` | -0.2731% | 11.43% |
| 50 | `COc1ccc2c(c1)C(=O)N(C)C1(CCN(CC3CC3)CC1)N2` | -53.82% | 9.769% |
| 51 | `CCCOc1ncccc1CNc1nnc(C)c(C)c1C#N` | - | -6.932% |
| 52 | `Brc1ccc(NCCCOC2CCOCC2)nc1` | -141.4% | -14.47% |
| 53 | `CCOc1ccccc1-c1cc(N)[nH]n1.Cl` | -3.53% | -19.47% |
| 54 | `O=C(CCc1nc(Cl)n[nH]1)NC1CCCN(C2Cc3ccccc3C2)C1` (centres undefined) | -17.12% | -0.7609% |
| 55 | `Cn1c(CN2CCCC(c3noc(C4CC4)n3)C2)cc(=O)n(C)c1=O` (centres undefined) | 1.442% | 33.33% |
| 56 | `CC(C)CS(=O)(=O)Nc1ccc([C@H]2OCC(=O)N[C@@H]2CO)cc1` | -4.238% | 14.19% |
| 57 | `O=C1CC(NS(=O)(=O)N2CCOCC2)CN1CCc1ccccc1` (centres undefined) | -4.535% | 10.42% |
| 58 | `COc1cccc(CNCc2ccnc(N3CCOCC3)c2)c1OC` | 7.127% | 32.56% |
| 59 | `COc1c(C2CCCN2Cc2nc(-c3ccco3)no2)c(C)nn1C` (centres undefined) | 0.8133% | 18.9% |
| 60 | `CN1CCN(C2CCCC2)C(CCO)C1` (centres undefined) | -11.31% | 31.83% |
| 61 | `CN1CCN(c2cccc(NC(=O)NCc3csc(N(C)C)n3)c2)C1=O` | 19.42% | -24.13% |
| 62 | `CN(C)CCCNC(=O)c1cc(Cl)ccc1Cl` | 3.73% | 45.99% |
| 63 | `O=C(NCc1ccccc1F)NCC(O)c1cccc(F)c1` (centres undefined) | 4.832% | 19.97% |
| 64 | `CCN(CC)S(=O)(=O)NC(C)C(=O)N(C)C` (centres undefined) | -57.66% | 16.05% |
| 65 | `Cc1noc(C)c1CN(C)CC(=O)/N=c1\cc[nH]n1C(C)C1CC1` (centres undefined) | -27.59% | 9.698% |
| 66 | `COCCN(C(=O)c1cc(-c2ccc(C)s2)[nH]n1)C1CC1` | 4.582% | 13.36% |
| 67 | `CNC(=O)c1cc(C)n(-c2cccc(OC)c2)c1C` | - | -13.77% |
| 68 | `Cc1ccccc1[C@@H]1CN(Cc2ccc(C(F)(F)F)nc2)C[C@H]1C(=O)O` | -15.57% | 13.27% |
| 69 | `CCN(CCn1cccn1)Cc1nc(-c2ccc(F)cc2)oc1C` | -18.74% | 19.23% |
| 70 | `CC(C(=O)NCc1ccnc(OCC(F)(F)F)c1)n1cncn1` (centres undefined) | -40.88% | 22.43% |
| 71 | `CCN(Cc1ccccc1)C(=O)CCN1C[C@@H](C(=O)O)[C@H](C2CC2)C1` | -10.99% | -1.684% |
| 72 | `Cc1ccsc1C(O)CNC(=O)Cc1ccc(F)cc1` (centres undefined) | -22.48% | -12.76% |
| 73 | `Cc1cc(C)c2c(c1)C(NC(=O)CSc1nnc[nH]1)CCO2` (centres undefined) | -31.94% | 9.06% |
| 74 | `O=C(C[S+]([O-])Cc1ccccc1F)N1CCc2sccc2C1` (centres undefined) | 8.071% | 11.13% |
| 75 | `CCNC(=O)[C@@H]1C[C@H](NC(=O)c2cncnc2C)CN1Cc1ccsc1` | 2.525% | 37.2% |
| 76 | `COc1cccc(CN2CCCC2c2cncc(Nc3nncs3)n2)c1` (centres undefined) | - | 14.7% |
| 77 | `[H][C@]12CC[C@@]3(N=C(C)N(CC(C)C)C3=O)[C@@]1([H])CN(S(=O)(=O)C1CC1)C2` | -9.947% | -5.145% |
| 78 | `COc1ncccc1C(Cc1ccsc1)NC(=O)Cn1cccnc1=O` (centres undefined) | -6.366% | 6.622% and 4.97% |
| 79 | `CCc1nc(CNCC2(C(N)=O)CCOCC2)cs1` | -8.654% | 11.72% |
| 80 | `Cc1noc(C)c1-c1ccnc(C2CCN(S(=O)(=O)N(C)C)CC2)c1` | -0.5554% | 0.6918% |
| 81 | `O=C(NCCNc1ncccn1)C1CC(=O)N(Cc2ccco2)C1` (centres undefined) | -20.09% | 15.76% |
| 82 | `CN(Cc1nnc2n1CCC2)S(=O)(=O)c1cc(Br)ccc1Br` | 7.839% | 22.5% |
| 83 | `CN(Cc1ncc(C(C)(C)C)o1)C1CCCN(c2cccnn2)C1` (centres undefined) | -16.94% | 23.31% |

Repeated from the top, 8 entries:

{"smiles": "CCNc1ncc(C(=O)N2Cc3nc(C)[nH]c(=O)c3C2)cn1", "A": -21.09, "B": -2.404}
{"smiles": "CSC1(CNC(=O)NCc2sccc2C)CCOCC1", "A": -71.73, "B": 28.35}
{"smiles": "CCN(CC)C(=O)Cn1ccc2cc(NC(=O)C3CC3)ccc21", "A": 3.599, "B": 9.174}
{"smiles": "Cc1n[nH]c(C)c1CCC(=O)N1CCC(O)(CN2CCN(C)CC2)C1", "stereo": "centres undefined", "A": -15.98, "B": 2.204}
{"smiles": "CC(CS(C)(=O)=O)NCc1cc(Cl)ccc1F", "stereo": "centres undefined", "A": -17.24, "B": -30.78}
{"smiles": "CC(C)CN(CC(O)c1ccc(F)cc1)C(=O)c1csnn1", "stereo": "centres undefined", "A": -1.378, "B": -23.47}
{"smiles": "CCS(=O)(=O)Nc1ccc2oc(C)c(C(C)=O)c2c1", "A": -8.117, "B": -2.932}
{"smiles": "Cc1nc(NC(=O)C2CCCN(C(=O)C3CC3)C2)sc1C", "stereo": "centres undefined", "A": -11.09, "B": 13.54}